These are yes or no findings as the source states them, for the method shown. Binding seen in cells or lysates may run through a third protein. These calls come from enrichment with a bait or labelling near it, and not all partners need be listed.
B1: sideroflexin-1 (protein, UniProt Q9H9B4 1-322)
chain: MSGELPPNINIKEPRWDQSTFIGRANHFFTVTDPRNILLTNEQLESARKIVHDYRQGIVPPGLTENELWRAKYIYDSAFHPDTGEKMILIGRMSAQVPMNMTITGCMMTFYRTTPAVLFWQWINQSFNAVVNYTNRSGDAPLTVNELGTAYVSATTGAVATALGLNALTKHVSPLIGRFVPFAAVAAANCINIPLMRQRELKVGIPVTDENGNRLGESANAAKQAITQVVVSRILMAAPGMAIPPFIMNTLEKKAFLKRFPWMSAPIQVGLVGFCLVFATPLCCALFPQKSSMSVTSLEAELQAKIQESHPELRRVYFNKGL

The chains behind the UniProt entries cited, without tags or fusion partners. Residues count along the entry.
UniProt A6H603: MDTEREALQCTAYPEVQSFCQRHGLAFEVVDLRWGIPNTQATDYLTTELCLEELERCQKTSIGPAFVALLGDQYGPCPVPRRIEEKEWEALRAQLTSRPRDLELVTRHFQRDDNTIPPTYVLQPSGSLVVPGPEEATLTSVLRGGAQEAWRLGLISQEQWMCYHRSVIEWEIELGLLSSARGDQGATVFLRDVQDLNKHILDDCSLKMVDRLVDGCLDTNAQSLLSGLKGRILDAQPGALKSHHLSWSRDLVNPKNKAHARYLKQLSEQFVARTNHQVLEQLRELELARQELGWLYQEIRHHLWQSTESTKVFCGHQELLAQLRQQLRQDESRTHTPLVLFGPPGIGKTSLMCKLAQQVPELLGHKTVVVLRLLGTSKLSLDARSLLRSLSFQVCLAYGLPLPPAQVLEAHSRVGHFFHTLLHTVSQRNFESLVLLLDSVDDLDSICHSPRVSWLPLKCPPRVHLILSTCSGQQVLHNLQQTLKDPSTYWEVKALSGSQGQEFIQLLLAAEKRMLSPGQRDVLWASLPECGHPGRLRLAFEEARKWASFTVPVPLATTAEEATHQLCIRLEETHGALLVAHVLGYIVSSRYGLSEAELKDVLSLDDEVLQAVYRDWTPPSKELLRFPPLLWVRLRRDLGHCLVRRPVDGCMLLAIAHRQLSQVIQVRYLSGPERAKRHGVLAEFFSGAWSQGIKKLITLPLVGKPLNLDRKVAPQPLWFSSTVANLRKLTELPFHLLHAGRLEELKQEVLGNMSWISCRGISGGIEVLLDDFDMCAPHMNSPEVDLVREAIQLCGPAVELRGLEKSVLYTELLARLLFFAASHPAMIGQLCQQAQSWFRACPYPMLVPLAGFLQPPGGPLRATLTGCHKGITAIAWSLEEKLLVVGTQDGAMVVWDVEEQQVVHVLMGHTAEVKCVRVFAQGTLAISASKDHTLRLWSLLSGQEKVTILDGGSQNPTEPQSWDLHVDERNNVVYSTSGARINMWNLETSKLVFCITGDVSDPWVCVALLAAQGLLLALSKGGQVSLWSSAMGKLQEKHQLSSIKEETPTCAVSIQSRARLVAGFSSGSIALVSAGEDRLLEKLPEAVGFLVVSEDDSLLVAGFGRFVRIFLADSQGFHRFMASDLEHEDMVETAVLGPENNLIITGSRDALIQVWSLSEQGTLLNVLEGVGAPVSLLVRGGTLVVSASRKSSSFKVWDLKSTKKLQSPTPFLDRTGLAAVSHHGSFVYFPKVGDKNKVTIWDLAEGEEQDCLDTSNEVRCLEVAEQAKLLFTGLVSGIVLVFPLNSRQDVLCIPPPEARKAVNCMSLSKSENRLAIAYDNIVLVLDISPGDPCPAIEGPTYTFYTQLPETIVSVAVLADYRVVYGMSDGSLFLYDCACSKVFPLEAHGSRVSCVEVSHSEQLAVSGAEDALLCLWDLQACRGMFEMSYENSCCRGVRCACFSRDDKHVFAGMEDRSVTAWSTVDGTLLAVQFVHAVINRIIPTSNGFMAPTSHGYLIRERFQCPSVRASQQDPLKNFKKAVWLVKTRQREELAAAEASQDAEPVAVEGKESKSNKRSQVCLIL
UniProt P51149: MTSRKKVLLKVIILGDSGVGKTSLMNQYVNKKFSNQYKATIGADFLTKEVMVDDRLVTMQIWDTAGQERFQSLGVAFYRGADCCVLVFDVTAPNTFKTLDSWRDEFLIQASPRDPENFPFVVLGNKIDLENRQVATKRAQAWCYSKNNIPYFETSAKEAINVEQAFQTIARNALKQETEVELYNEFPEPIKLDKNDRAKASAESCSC
UniProt P21796: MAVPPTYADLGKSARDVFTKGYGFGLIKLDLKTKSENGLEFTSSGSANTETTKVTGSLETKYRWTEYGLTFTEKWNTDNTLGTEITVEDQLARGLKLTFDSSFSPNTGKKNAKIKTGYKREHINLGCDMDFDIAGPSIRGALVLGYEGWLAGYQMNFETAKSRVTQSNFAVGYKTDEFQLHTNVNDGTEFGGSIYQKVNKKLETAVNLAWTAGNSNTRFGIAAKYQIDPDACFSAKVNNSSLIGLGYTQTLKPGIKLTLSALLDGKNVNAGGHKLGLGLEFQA
UniProt P27824, residues 21-592: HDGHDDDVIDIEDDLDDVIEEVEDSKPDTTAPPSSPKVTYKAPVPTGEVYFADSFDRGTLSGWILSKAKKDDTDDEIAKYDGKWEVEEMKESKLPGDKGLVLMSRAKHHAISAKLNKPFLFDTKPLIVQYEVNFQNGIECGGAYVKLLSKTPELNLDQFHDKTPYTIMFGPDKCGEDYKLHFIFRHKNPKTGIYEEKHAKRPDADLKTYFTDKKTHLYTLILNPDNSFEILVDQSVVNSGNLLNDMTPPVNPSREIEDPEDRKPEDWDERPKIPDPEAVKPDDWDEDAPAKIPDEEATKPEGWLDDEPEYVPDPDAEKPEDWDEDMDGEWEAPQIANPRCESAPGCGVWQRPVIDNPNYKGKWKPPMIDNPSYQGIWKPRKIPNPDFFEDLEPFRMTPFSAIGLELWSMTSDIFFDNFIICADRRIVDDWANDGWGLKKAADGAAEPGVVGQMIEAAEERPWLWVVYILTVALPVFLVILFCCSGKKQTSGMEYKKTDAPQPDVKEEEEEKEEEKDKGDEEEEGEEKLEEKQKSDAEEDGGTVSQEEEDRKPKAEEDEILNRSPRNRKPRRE
UniProt P0DMV8: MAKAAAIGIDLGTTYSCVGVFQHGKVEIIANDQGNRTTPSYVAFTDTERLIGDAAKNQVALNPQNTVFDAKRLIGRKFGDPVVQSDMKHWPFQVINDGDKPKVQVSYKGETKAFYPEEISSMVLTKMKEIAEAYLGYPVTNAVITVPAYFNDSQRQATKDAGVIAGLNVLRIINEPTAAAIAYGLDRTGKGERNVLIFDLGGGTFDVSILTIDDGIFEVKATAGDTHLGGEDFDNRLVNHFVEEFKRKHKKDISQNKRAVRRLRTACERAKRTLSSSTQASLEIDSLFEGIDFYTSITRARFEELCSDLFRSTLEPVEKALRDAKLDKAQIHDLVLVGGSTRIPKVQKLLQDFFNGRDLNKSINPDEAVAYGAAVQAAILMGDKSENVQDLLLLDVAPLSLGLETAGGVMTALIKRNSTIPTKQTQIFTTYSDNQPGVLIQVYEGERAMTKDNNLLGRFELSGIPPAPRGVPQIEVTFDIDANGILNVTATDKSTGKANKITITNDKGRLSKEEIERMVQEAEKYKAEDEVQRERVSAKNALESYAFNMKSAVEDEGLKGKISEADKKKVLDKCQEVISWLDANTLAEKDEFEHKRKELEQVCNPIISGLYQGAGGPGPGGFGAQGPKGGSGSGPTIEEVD

Target: Halo-Nwd1 (NACHT and WD repeat domain-containing protein 1, halo-tagged) (mouse) (UniProt A6H603)
Experiment: affinity purification with mass spectrometry

binding, binds:
RAB7A (from UniProt P51149 1-207)
sarco/endoplasmic reticulum calcium ATPase (SERCA2), endogenous in HEK293T (from UniProt P16615-1 1-1042)
voltage-dependent anion-selective channel protein 1 (VDAC1) (from UniProt P21796 1-283)
calnexin (from UniProt P27824 21-592)
heat shock 70 kDa protein 1A (from UniProt P0DMV8 1-641)
B1

— article doi:10.1101/2024.01.26.577307
